In PMC13168492:
Results are given in words; binding and its absence hold for the method and conditions named. In cells and extracts the contact can be indirect. A yes stands for co-enrichment or nearness to the bait. Other partners may have been found.

The chains behind the UniProt entries cited, without tags or fusion partners.
UniProt P45974: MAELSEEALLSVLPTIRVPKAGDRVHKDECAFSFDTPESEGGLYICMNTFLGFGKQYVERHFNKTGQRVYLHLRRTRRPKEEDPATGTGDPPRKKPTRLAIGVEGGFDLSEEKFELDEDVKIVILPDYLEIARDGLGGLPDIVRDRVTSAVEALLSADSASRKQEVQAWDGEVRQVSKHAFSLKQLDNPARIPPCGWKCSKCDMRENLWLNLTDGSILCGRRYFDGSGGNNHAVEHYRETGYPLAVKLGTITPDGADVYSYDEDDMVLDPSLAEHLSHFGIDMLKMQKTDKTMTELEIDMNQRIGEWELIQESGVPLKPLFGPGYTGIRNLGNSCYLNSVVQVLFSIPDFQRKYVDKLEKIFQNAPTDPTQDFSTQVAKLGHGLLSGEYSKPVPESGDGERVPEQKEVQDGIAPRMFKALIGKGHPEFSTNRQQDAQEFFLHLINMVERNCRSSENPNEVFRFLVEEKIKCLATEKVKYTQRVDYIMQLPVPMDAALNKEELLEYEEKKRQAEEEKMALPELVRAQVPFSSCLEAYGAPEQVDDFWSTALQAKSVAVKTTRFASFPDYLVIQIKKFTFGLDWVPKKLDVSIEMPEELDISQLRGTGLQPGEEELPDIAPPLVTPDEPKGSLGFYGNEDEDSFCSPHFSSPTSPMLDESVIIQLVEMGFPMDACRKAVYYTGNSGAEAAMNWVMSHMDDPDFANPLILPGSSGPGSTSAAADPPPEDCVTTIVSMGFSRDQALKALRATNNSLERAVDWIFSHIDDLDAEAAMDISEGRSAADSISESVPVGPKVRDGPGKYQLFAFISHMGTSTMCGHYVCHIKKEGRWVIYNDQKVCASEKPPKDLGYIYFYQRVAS

Target: ubiquitin-specific protease 5 (USP5), endogenous (human (endogenous in KYSE450 and KYSE30)) (UniProt P45974)
Test: affinity purification with mass spectrometry; USP5 immunoprecipitated from KYSE450 and KYSE30 cells, LC-MS/MS of the precipitate

Substance: inosine monophosphate dehydrogenase 2 (IMPDH2), endogenous (from UniProt P12268 1-514) (enzyme)
- binding: binds
